Measurements as given in the supplement of paper PMC11732987, “Enantioselective OTUD7B fragment discovery through chemoproteomics screening and high-throughput optimisation” (Communications Chemistry, 2025).
The other results are listed elsewhere or left out. The data scatter; read single values as rough.

By UniProt entry, the sequences of proteins in these tests, tags left out. Where a name states a change or a piece, a line headed by the entry shows the natural chain unless it says otherwise. Residues count along the entry.
UniProt Q5VWQ0: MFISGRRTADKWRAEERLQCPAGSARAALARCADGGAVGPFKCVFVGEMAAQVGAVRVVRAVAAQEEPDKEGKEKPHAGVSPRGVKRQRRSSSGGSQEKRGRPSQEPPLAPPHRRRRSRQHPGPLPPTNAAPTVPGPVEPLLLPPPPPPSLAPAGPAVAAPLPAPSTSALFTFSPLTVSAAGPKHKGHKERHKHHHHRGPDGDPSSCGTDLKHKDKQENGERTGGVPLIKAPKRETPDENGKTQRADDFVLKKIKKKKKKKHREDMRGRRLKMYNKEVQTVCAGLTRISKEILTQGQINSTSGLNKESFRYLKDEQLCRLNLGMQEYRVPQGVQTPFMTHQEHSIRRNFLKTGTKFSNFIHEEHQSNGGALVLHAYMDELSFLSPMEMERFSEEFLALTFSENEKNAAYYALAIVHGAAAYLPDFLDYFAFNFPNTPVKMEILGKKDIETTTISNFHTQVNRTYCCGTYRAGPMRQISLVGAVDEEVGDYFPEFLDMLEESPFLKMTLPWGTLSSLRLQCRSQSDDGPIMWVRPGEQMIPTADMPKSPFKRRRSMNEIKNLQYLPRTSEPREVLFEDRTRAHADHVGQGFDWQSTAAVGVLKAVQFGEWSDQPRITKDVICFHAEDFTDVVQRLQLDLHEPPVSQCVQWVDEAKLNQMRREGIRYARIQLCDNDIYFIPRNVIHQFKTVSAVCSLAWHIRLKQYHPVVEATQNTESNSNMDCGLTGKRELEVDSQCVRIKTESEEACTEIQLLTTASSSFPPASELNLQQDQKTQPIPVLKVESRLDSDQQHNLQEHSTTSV
UniProt P23921: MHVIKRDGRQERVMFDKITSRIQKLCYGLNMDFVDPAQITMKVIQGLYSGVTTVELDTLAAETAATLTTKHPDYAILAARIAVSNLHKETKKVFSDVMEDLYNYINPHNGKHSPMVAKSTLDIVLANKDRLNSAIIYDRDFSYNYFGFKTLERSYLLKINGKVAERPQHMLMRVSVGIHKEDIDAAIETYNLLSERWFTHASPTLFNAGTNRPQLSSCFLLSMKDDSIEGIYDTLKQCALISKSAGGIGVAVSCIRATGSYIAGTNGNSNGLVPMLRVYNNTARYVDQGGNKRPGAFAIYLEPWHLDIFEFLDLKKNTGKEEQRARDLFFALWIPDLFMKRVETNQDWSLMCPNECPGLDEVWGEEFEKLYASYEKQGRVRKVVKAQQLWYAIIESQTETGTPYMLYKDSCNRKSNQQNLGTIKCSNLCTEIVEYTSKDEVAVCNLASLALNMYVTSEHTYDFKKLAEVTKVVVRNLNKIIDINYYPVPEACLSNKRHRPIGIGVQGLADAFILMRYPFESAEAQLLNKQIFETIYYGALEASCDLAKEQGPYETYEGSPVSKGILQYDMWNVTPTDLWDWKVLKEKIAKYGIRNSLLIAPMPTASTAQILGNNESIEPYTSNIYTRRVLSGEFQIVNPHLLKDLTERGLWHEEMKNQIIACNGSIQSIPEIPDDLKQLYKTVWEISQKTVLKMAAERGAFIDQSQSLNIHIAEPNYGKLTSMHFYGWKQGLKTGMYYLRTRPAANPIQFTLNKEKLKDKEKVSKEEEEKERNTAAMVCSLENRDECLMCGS
UniProt O75150: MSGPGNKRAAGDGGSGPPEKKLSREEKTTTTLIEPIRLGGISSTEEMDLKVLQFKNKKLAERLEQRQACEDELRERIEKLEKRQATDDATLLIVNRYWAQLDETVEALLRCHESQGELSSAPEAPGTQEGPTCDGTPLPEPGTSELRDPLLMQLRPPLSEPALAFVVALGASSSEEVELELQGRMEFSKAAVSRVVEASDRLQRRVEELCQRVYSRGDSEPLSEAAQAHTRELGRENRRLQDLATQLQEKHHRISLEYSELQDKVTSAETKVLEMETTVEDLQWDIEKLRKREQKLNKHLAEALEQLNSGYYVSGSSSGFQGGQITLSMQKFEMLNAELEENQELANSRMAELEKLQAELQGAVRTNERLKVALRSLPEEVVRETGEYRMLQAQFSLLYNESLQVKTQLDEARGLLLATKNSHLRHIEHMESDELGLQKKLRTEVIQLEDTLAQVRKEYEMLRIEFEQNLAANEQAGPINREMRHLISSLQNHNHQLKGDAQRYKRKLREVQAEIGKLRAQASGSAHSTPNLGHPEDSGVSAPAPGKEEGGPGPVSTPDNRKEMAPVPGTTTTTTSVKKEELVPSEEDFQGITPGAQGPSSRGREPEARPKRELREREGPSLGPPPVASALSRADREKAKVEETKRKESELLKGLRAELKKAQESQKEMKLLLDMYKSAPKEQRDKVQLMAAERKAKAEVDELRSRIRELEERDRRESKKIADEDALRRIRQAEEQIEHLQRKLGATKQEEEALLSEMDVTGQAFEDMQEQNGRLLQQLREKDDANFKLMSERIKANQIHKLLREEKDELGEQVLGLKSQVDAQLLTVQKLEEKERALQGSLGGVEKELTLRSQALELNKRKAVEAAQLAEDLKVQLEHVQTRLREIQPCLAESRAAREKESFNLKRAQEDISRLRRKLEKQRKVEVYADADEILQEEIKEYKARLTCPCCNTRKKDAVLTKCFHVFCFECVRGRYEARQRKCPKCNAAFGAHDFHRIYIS
UniProt P28702: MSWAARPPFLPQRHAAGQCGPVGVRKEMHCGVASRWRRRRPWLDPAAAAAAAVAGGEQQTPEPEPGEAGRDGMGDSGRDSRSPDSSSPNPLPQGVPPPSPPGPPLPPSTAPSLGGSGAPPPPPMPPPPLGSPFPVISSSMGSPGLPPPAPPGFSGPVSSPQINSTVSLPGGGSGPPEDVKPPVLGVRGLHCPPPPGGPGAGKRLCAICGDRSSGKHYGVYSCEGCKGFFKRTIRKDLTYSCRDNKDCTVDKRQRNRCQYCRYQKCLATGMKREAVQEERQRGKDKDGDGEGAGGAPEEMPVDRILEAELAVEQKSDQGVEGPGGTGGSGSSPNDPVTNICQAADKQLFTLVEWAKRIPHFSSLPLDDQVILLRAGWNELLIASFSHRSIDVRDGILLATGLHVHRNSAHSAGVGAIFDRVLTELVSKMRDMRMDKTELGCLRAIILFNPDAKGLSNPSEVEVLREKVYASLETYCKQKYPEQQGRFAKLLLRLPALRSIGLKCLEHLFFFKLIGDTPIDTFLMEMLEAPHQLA
UniProt Q9Y3V2: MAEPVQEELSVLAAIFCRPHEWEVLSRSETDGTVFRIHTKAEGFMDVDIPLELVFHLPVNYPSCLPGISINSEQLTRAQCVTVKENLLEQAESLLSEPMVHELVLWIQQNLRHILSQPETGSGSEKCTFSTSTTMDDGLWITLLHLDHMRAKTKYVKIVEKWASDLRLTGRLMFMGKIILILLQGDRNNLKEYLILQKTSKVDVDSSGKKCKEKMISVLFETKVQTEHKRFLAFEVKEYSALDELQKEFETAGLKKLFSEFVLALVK
UniProt Q96T51: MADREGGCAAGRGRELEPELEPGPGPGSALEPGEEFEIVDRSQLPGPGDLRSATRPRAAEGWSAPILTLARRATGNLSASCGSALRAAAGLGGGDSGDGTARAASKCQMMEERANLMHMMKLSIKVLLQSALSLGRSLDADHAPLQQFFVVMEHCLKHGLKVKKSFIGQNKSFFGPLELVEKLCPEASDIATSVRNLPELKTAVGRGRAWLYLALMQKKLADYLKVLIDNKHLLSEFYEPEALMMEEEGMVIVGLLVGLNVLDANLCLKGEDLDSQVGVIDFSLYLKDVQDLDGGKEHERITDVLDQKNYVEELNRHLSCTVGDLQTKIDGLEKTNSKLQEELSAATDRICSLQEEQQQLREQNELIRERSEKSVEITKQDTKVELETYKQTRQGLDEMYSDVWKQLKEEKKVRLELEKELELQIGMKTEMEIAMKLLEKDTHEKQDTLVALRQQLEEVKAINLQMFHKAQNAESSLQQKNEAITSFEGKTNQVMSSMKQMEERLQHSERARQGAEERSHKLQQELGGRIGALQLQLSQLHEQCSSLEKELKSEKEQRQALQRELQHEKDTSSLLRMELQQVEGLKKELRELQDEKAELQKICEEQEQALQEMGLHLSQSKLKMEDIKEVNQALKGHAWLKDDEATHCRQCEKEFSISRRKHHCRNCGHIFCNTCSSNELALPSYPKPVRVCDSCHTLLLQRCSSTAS
UniProt Q9NZ71: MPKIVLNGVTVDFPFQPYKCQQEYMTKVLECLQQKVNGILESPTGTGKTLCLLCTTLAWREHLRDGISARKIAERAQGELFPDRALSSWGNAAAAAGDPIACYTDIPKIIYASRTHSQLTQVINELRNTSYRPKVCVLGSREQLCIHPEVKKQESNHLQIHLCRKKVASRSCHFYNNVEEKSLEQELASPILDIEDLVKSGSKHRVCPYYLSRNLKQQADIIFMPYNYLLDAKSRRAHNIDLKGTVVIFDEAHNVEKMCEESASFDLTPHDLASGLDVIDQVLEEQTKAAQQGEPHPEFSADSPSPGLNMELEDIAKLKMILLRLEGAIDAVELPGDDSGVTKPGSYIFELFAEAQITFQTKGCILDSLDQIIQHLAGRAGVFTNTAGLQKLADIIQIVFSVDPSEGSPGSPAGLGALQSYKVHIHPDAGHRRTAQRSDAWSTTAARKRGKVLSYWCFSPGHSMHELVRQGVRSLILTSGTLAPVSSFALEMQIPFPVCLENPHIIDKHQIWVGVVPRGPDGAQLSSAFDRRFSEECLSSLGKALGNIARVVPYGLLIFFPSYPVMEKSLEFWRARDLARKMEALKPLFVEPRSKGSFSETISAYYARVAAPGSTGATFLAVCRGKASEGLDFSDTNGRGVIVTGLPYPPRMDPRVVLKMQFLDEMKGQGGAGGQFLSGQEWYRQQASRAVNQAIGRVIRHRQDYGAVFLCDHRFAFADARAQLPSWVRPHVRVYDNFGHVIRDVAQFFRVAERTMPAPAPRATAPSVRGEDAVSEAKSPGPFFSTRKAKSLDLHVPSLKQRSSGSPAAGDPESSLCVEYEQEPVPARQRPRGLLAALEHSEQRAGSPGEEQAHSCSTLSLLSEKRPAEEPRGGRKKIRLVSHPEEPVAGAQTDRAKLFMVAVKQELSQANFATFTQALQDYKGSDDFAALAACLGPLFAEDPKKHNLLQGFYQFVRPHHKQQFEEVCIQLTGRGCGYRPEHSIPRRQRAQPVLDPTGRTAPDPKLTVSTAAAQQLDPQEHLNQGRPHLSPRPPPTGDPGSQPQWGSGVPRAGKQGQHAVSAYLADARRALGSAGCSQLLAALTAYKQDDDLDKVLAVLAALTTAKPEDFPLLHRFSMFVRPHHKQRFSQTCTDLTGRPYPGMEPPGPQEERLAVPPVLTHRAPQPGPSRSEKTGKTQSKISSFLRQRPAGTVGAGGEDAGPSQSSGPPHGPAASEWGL
UniProt Q6PCB5, 2-28: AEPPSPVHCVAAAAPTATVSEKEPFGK
UniProt Q96EP0: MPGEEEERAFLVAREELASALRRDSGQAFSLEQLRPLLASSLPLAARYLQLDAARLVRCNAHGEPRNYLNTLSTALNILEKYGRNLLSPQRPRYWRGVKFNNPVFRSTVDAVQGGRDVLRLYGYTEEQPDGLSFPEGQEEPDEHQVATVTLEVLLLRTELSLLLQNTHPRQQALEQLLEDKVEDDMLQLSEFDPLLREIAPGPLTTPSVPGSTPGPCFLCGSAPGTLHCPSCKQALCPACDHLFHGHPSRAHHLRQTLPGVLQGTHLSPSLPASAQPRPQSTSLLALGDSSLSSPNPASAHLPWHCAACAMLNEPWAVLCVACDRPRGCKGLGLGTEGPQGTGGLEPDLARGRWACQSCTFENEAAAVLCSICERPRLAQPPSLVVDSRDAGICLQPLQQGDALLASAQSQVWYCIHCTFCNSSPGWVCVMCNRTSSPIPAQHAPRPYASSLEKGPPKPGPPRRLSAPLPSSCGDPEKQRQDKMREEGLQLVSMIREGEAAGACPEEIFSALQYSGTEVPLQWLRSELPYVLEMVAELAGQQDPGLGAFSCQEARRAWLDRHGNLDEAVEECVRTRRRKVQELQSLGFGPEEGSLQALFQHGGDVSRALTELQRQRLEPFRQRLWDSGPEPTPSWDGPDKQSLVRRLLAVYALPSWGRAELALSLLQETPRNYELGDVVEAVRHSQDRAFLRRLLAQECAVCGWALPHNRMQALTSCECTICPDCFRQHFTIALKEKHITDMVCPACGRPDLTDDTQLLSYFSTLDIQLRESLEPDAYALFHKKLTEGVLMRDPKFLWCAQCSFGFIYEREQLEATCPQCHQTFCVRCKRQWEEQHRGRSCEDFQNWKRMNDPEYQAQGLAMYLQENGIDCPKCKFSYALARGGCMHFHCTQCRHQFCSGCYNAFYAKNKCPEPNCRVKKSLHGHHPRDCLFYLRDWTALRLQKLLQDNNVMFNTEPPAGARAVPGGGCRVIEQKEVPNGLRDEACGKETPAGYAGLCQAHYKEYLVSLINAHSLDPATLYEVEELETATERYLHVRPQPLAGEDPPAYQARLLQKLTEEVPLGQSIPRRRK
UniProt P19793, 246-274: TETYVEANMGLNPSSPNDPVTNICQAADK

The targets below were run with ClCC(=O)N[C@H]1CCCc2ccccc12 (assay: log2 mean competition ratio of IA-DTB cysteine labelling (DMSO/compound) (log2 ratio); higher = stronger cysteine engagement by compound). Details: 50 µM; treatment time: 4 h; cell line lysate: HEK293T.
Description: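 IA-DTB competitive cysteine chemoproteomics in HEK293T RIPA lysate. Lysates were treated with compound 29 or 30 at 50 or 200 µM for 4 h, then IA-DTB (500 µM, 1 h), trypsin-digested, NeutrAvidin-enriched and analysed by diaPASEF. Competition ratio = intensity DMSO / intensity compound (n=4 treated, n=64 DMSO); binding: mean log2 CR ≥ 1 and p ≤ 0.05 plus QC filters. Target is the cysteine site.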

Target	log2 mean competition ratio
RSBN1 C736 (UniProt Q5VWQ0)	0.0958
RPL7A C182 (UniProt P62424)	-0.28
RRM1 C238 (UniProt P23921)	0.292
RNF213 C3084	0.106
RNF213 C3261	-0.0728
RNF40 C890 (UniProt O75150)	0.183
RXRB C475 (UniProt P28702)	0.0684
RWDD3 C80 (UniProt Q9Y3V2)	-0.255
RUFY1 C107 (UniProt Q96T51)	0.29
RPL14 C42 (UniProt P50914)	0.214
RTN4RL2 C310 (UniProt Q86UN3)	0.0754
RRP12 C317 (UniProt Q5JTH9)	0.0521
RTEL1 C136 (UniProt Q9NZ71)	-0.0598
RPLP0 C119	0.411
RSBN1L C10 (UniProt Q6PCB5)	0.502
RNF213 C2943	-0.0306
RNF31 C473 (UniProt Q96EP0)	-0.117
RPL3 C114 (UniProt P39023)	-0.102
RNF213 C2918	0.256
SACS C395 (UniProt Q9NZJ4)	0.477

Same assay, conditions: 200 µM; treatment time: 4 h; cell line lysate: HEK293T

Target	log2 mean competition ratio
RSBN1 C736 (UniProt Q5VWQ0)	0.275
RPL7A C182 (UniProt P62424)	0.0447
RRM1 C238 (UniProt P23921)	-0.269
RNF213 C3084	0.0953
RNF213 C3261	-0.14
RNF40 C890 (UniProt O75150)	0.0923
RXRB C475 (UniProt P28702)	0.0844
RWDD3 C80 (UniProt Q9Y3V2)	0.0939
RUFY1 C107 (UniProt Q96T51)	0.303
RPL14 C42 (UniProt P50914)	-0.113
RTN4RL2 C310 (UniProt Q86UN3)	0.387
RRP12 C317 (UniProt Q5JTH9)	-0.116
RTEL1 C136 (UniProt Q9NZ71)	0.26
RPLP0 C119	-0.249
RXRA C269 (UniProt P19793)	-0.161
RSBN1L C10 (UniProt Q6PCB5)	-0.0352
RNF213 C2943	-0.045
RNF31 C473 (UniProt Q96EP0)	-0.259
RPL3 C114 (UniProt P39023)	-0.0894
RNF213 C2918	-0.128
SACS C395 (UniProt Q9NZJ4)	0.145
